{"source": "PubChem BioAssay AID1671195 – Yale University – 2021", "assay": "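Genes whose knockdown alters LDL uptake in liver cancer cells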 (primary screen)", "cells": "human Huh7 hepatoma cells", "knock-down reagent": "siRNA pool against human genes, 18 nM", "time to read-out": "about 2 to 2.5 days of knockdown, then 8 h LDL uptake", "treatment": "DiI-labelled LDL at 30 µg/ml for 8 h, in lipoprotein-deficient serum medium", "detection": "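Fluorescent LDL signal imaged in cells, scaled to the plate median, robust z-score for each replicate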", "direction": "robust z-score: higher = more LDL uptake after knockdown", "active means": "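Active when two or more replicates show a robust z-score above 2 or below -2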", "note": "Here is an unselected part of about 22,000 reagents tested. About 1,510 of all reagents (6.9%) count as active. 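Active includes knockdowns raising or lowering LDL uptake; positive z-scores mean more uptake, negative mean less.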"}
{"gene knocked down": "SREK1IP1 (SREK1 interacting protein 1)", "robust z-score, replicate 1": 0.895, "robust z-score, replicate 2": 1.03, "robust z-score, replicate 3": 1.19, "call": "inactive"}
{"gene knocked down": "MED6 (mediator complex subunit 6)", "robust z-score, replicate 1": -1.4, "robust z-score, replicate 2": -1.33, "robust z-score, replicate 3": -1.34, "call": "inactive"}
{"gene knocked down": "MBOAT7", "robust z-score, replicate 1": -0.302, "robust z-score, replicate 2": -0.363, "robust z-score, replicate 3": 0.752, "call": "inactive"}
{"gene knocked down": "RUNDC3B (RUN domain containing 3B)", "robust z-score, replicate 1": -0.7, "robust z-score, replicate 2": -0.0266, "robust z-score, replicate 3": -0.572, "call": "inactive"}
{"gene knocked down": "GSC (goosecoid homeobox)", "robust z-score, replicate 1": 0.471, "robust z-score, replicate 2": 1.08, "robust z-score, replicate 3": 0.0308, "call": "inactive"}
{"gene knocked down": "ESX1 (ESX homeobox 1)", "robust z-score, replicate 1": 0.293, "robust z-score, replicate 2": 0.592, "robust z-score, replicate 3": 0.265, "call": "inactive"}
{"gene knocked down": "CDK5 (cyclin dependent kinase 5)", "robust z-score, replicate 1": 0.486, "robust z-score, replicate 2": 0.717, "robust z-score, replicate 3": 0.444, "call": "inactive"}
{"gene knocked down": "FAH (fumarylacetoacetate hydrolase)", "robust z-score, replicate 1": 0.867, "robust z-score, replicate 2": 1.67, "robust z-score, replicate 3": 0.969, "call": "inactive"}
{"gene knocked down": "LINC01120 (long independently transcribed non-coding RNA 1120)", "robust z-score, replicate 1": 0.102, "robust z-score, replicate 2": 0.371, "robust z-score, replicate 3": 0.558, "call": "inactive"}
{"gene knocked down": "MSGN1 (mesogenin 1)", "robust z-score, replicate 1": 0.844, "robust z-score, replicate 2": 1.56, "robust z-score, replicate 3": 1.46, "call": "inactive"}
{"gene knocked down": "PYDC2 (pyrin domain containing 2)", "robust z-score, replicate 1": 0.578, "robust z-score, replicate 2": -0.184, "robust z-score, replicate 3": 0.242, "call": "inactive"}
{"gene knocked down": "CACNA1E (calcium voltage-gated channel subunit alpha1 E)", "robust z-score, replicate 1": 0.41, "robust z-score, replicate 2": 0.15, "robust z-score, replicate 3": 0.166, "call": "inactive"}
{"gene knocked down": "ZNF223 (zinc finger protein 223)", "robust z-score, replicate 1": 0.688, "robust z-score, replicate 2": 1.23, "robust z-score, replicate 3": 0.439, "call": "inactive"}
{"gene knocked down": "LINC01366 (long independently transcribed non-coding RNA 1366)", "robust z-score, replicate 1": 1.48, "robust z-score, replicate 2": 1.44, "robust z-score, replicate 3": 0.822, "call": "inactive"}
{"gene knocked down": "LINC01278 (long independently transcribed non-coding RNA 1278)", "robust z-score, replicate 1": 1.45, "robust z-score, replicate 2": 0.33, "robust z-score, replicate 3": 0.547, "call": "inactive"}
{"gene knocked down": "LRRC74B (leucine rich repeat containing 74B)", "robust z-score, replicate 1": 2.86, "robust z-score, replicate 2": 3.35, "robust z-score, replicate 3": 2.39, "call": "active"}
